Measured values: article PMC9774241, “Associating Biological Activity and Predicted Structure of Antimicrobial Peptides from Amphibians and Insects” (Antibiotics, 2022)

Test system: Escherichia coli ATCC 25922
Type: cell-based
Settings: ratio of the toxicity to the MIC; range; N/O = no observed antimicrobial activity
Protocol: Bacteria were grown overnight at 37 °C in Mueller-Hinton Broth (MHB; Sigma-Aldrich, St. Louis. MO, USA) in a shaking incubator and aliquoted into cryovials with a 50% glycerol solution in a 1:1 ratio. No additives were added to the MHB during the growth of bacterial isolates. Glycerol stocks were stored at −80 °C.
The antimicrobial activity of the putative AMPs was determined by a broth microdilution assay as described by the Clinical and Laboratory Standards Institute, with the published adaptations for testing of cationic peptides. Escherichia coli 25922 and Staphylococcus aureus 29213 isolates were purchased from the American Type Culture Collection (ATCC; Manassas, VA, USA). A human clinical isolate of Salmonella enterica serovar Enteritidis was provided by the BC Centre for Disease Control. Bacteria from stocks stored at −80 °C were streaked onto nonselective Columbia blood agar with 5% sheep blood (Oxoid) and incubated overnight at 37 °C. Next, 2–4 colonies were streaked onto a new agar plate to ensure uniform health of colonies used in the broth microdilution assay. Isolated colonies were suspended in MHB and the optical density was measured with a spectrophotometer to create an initial inoculum concentration of approximately 1 × 10^8 cfu/mL. The inoculum was diluted 1:250 to a final concentration of 2–8 × 10^5 cfu/mL, which was confirmed by performing a Total Viability Count (TVC). The TVC consisted of plating a 1:1000 dilution of the final inoculum on nonselective media and was also used to confirm the health and purity of the inoculum in each trial.
Lyophilized 80 µg peptide aliquots synthesized by GenScript (Piscataway, NJ, USA) were resuspended to 1.28 mg/mL with UltraPure water (Thermo Fisher Scientific, Waltham, MA, USA) and serially diluted in polypropylene 96-well microtiter plates (Greiner Bio-One #650261, Kremsmünster, Austria) from 128 down to 0.5 µg/mL. […] The minimum inhibitory concentration (MIC) was determined as the lowest peptide concentration where there was no visible bacterial growth.

Sequence | Selectivity Index, E. coli ATCC 25922
GAFVLWGPTPRPRRR [DiLo1] | > 1
GILRLVTRRFRFSPTNLNRYTVARLVSGVP [BoAr6] | > 4
RRAIFASIRGYLGLRKR [MyGu1] | > 32

No end group written: not given here.
